Reference: article doi:10.1101/2022.10.11.511767
These are yes or no findings as the source states them, for the method shown.

By UniProt entry, the sequences of proteins in these tests, tags left out. Where a name states a change or a piece, a line headed by the entry shows the natural chain unless it says otherwise. Residues count along the entry.
UniProt P06634: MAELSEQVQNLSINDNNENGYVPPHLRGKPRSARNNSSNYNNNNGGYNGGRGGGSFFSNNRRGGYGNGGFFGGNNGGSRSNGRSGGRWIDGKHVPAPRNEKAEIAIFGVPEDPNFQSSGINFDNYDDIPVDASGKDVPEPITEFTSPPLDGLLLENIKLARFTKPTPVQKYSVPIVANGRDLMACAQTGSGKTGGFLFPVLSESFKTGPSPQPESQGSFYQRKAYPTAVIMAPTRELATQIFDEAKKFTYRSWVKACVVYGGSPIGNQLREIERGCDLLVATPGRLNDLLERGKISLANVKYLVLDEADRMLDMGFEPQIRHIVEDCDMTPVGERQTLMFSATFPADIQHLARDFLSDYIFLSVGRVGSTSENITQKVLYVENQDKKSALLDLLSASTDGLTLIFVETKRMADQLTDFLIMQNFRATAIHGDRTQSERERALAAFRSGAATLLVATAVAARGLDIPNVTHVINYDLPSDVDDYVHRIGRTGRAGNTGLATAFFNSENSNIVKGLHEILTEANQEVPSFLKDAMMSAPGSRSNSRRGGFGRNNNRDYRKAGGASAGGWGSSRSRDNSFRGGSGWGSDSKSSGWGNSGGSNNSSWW
N-terminal IDR of Sc Ded1p (residues 1-81): residues 1-81 of P06634
C-terminal IDR of Sc Ded1p (residues 533-604): residues 533-604 of P06634

Key:
[1] = biological target: C-terminal IDR of Sc Ded1p (residues 533-604) (S. cerevisiae) (UniProt P06634); assay: NMR titration
[2] = biological target: N-terminal IDR of Sc Ded1p (residues 1-81) (S. cerevisiae) (UniProt P06634); assay: NMR titration

Substance	binding [1]	binding [2]
RecA2 domain of Sc Ded1p (residues 369-535) (from UniProt P06634 369-535) (domain or fragment)	no binding	–
RecA1 domain of Sc Ded1p (residues 82-369) (from UniProt P06634 82-369) (domain or fragment)	–	no binding
